Measured values from patent publication EP4613859A1, “TLR SIGNALING INHIBITORY PEPTIDE AND COMPOSITION INCLUDING SAME FOR PREVENTION OR TREATMENT OF INFLAMMATORY DISEASES” (Korea Institute of Science and Technology, priority 2022, dated 2025).
Not every detail of the peptide structures is certain; ends, links or a residue may be inferred. No end group written: not given here.

Tested on: mice with sepsis induced by LPS
Assay: LPS-induced sepsis mouse model (survival, serum cytokine ELISA, renal TUNEL assay)
Type: in vivo

Sequence: RQIKIWFQNRRMKWKKGGAASSTTGGSSAATT [CP]
- time of death (LPS-induced sepsis mice, FIG. 9): 48 to 96 h
- TUNEL positive cells (cell death in renal tissue) (renal tissue, TUNEL assay, FIG. 11): increased
